Data from patent publication US20260266833A1 (AXOIYA, published 2026).
Non-standard residues stand in square brackets, D forms with d. No end group written: not given here. *: point of attachment. Biotin = O=C1N[C@H]2[C@H](CS[C@H]2CCCCC(=O)*)N1; Arg(Me) = CNC(=N)NCCC[C@H](N)C(=O)O; Ahx = NCCCCCC(=O)O

Columns and labels:
Test in all cases: luciferase-fusion assay on immobilized peptide
H3K14Ac = target: T1, H3K14Ac
T1 construct: also called H3K14Ac peptide
T1 peptide: {Biotin-Ahx}-TARKSTGGK(Ac)APRKQLAT
Protocol: (§1) For luciferase-based assays, 384-well white plates (PerkinElmer) were coated for 16 h at 4° C. with 4 μg/ml streptavidin (New England Biolabs, N7021S) in TBS pH 8.5 (50 mM Tris-HCl pH 8.5, 150 mM NaCl). Each well was blocked with 60 μl/well of TBS pH 8.5 containing 0.5% BSA (TB buffer) and incubated at 25° C. for 1 h. Plates were washed four times with 90 μl/well of PBS pH 7.4, 0.05% Tween-20 (PT buffer) and incubated with 25 μl/well of biotinylated histone peptides at 5 μg/ml in TB buffer pH 8.5 for 30 min at 25° C. Plates were washed and incubated with Cbx chromodomain-luciferase fusions diluted to 0.1 nM for Cbx. VD or 100 nM for Cbx.wt in TB buffer, 0.05% Tween-20, 1 mM DTT, 5% glycerol (TBT buffer). Plates were incubated for 1 h at 25° C. with gentle shaking, washed six times and luminescence intensity was measured with a Biotek Synergy 5 plate reader (Biotek) using the ONE-Glo™ EX luciferase assay system reagent (Promega). Following background subtraction of the luminescence signal derived from wells coated with streptavidin, the luminescence intensity was normalized to wells with immobilized H3K9me3 peptide.
(§2) To enhance detection sensitivity, each chromodomain was expressed as a fusion to the N-terminus of an engineered firefly luciferase and binding was measured by luminescence intensity.

H3R17me1 = target: T2, H3R17me1
T2 construct: also called H3R17me1 peptide
T2 peptide: {Biotin-Ahx}-KSTGGKAP[Arg(Me)]KQLATKAA
Protocol: as §1, §2

[1] = target: T3, H3K27 peptide (non-methylated) (also: N-terminal biotin + Ahx, or FITC at N-terminus)
T3 construct: also called unmethylated H3K27 peptide
T3 peptide: KQLATKAARKSAPATGGVK
Protocol: as §1, §2

H3K14 = target: T4, H3K14
T4 construct: also called H3K14 peptide (non-modified)
T4 peptide: {Biotin-Ahx}-TARKSTGGKAPRKQLAT
Protocol: as §1, §2

H4K20me3 = target: T5, H4K20me3 (Kme3 at peptide residue 8 (histone H4 K20); N-terminal biotin and aminohexanoic acid linker)
T5 construct: also called H4K20Me3 peptide
Protocol: as §1, §2

H3K27me3 peptide = target: T6, H3K27me3 peptide (Kme3 (trimethyl-lysine) at the 10th residue (KQLATKAARKme3SAPATGGVK); N-terminus biotin + aminohexanoic acid linker, or FITC at the N-terminus for fluorescence polarization)
T6 construct: Synthetic peptide (GenScript)
T6 peptide: KQLATKAARKSAPATGGVK
Protocol: as §1, §2

H3R17 = target: T7, H3R17
T7 construct: also called H3R17 peptide (non-modified)
T7 peptide: {Biotin-Ahx}-KSTGGKAPRKQLATKAA
Protocol: as §1, §2

H3K27me1 = target: T8, H3K27me1 (Kme1 at peptide residue 10 (histone H3 K27); N-terminal biotin and aminohexanoic acid linker)
T8 construct: also called H3K27Me1 peptide
T8 peptide: KQLATKAARKSAPATGGVK
Protocol: as §1, §2

H3K27me2 = target: T9, H3K27me2 (Kme2 at peptide residue 10 (histone H3 K27); N-terminal biotin and aminohexanoic acid linker)
T9 construct: also called H3K27Me2 peptide
T9 peptide: KQLATKAARKSAPATGGVK
Protocol: as §1, §2

H4K20 peptide = H4K20 peptide (N-terminus biotin + aminohexanoic acid linker)
Protocol: as §1, §2

binding result (H3K14Ac)	binding result (H3R17me1)	binding result [1]	binding result (H3K14)	binding result (H4K20me3)	binding result (H3K27me3 peptide)	binding result (H3R17)	binding result (H3K27me1)	binding result (H3K27me2)	binding result (H4K20 peptide)	Binder
no binding (tested: 100 nM)	no binding (tested: 100 nM)	no binding (tested: 100 nM)	no binding (tested: 100 nM)	no binding (tested: 100 nM)	no binding (tested: 100 nM)	no binding (tested: 100 nM)	no binding (tested: 100 nM)	no binding (tested: 100 nM)	no binding (tested: 100 nM)	Cbx3.wt chromodomain-luciferase fusion (other, not shown: engineered YY5 firefly luciferase from Photinus pyralis fused to the C-terminus) MSYYHHHHHHGSDYKDDDDKSSGENLYFQGSGGSEEAEPEEFVVEKVLDRRVVNGKVEYFLKWKGFTDADNTWEPEENLDCPELIEAFLNSQK
no binding (tested: 100 nM)	no binding (tested: 100 nM)	no binding (tested: 100 nM)	no binding (tested: 100 nM)	no binding (tested: 100 nM)	no binding (tested: 100 nM)	no binding (tested: 100 nM)	no binding (tested: 100 nM)	no binding (tested: 100 nM)	no binding (tested: 100 nM)	Cbx5.wt chromodomain-luciferase fusion (other, not shown: engineered YY5 firefly luciferase from Photinus pyralis fused to the C-terminus) MSYYHHHHHHGSDYKDDDDKSSGENLYFQGSGGSEEEYVVEKVLDRRVVKGQVEYLLKWKGFSEEHNTWEPEKNLDCPELISEFMKKYKKMKEGEN
no binding (tested: 0.1 nM)	no binding (tested: 0.1 nM)	no binding (tested: 0.1 nM)	no binding (tested: 0.1 nM)	no binding (tested: 0.1 nM)	no binding (tested: 0.1 nM)	no binding (tested: 0.1 nM)	no binding (tested: 0.1 nM)	no binding (tested: 0.1 nM)	no binding (tested: 0.1 nM)	Cbx5.VD chromodomain-luciferase fusion (designed binder, not shown: engineered YY5 firefly luciferase from Photinus pyralis fused to the C-terminus) MSYYHHHHHHGSDYKDDDDKSSGENLYFQGSGGSEDEYVVEKVLDRRVVKGQVEYLLKWEGFSEEHNTWEPEKNLDCPELISEFMKKYKKMKEGEN
no binding (tested: 100 nM)	no binding (tested: 100 nM)	no binding (tested: 100 nM)	no binding (tested: 100 nM)	no binding (tested: 100 nM)	no binding (tested: 100 nM)	no binding (tested: 100 nM)	no binding (tested: 100 nM)	no binding (tested: 100 nM)	no binding (tested: 100 nM)	Cbx1.wt chromodomain-luciferase fusion (other, not shown: engineered YY5 firefly luciferase from Photinus pyralis fused to the C-terminus) MSYYHHHHHHGSDYKDDDDKSSGENLYFQGSGGSEEEEYVVEKVLDRRVVKGKVEYLLKWKGFSDEDNTWEPEENLDCPDLIAEFLQSQKTAHETDK
no binding (tested: 0.1 nM)	no binding (tested: 0.1 nM)	no binding (tested: 0.1 nM)	no binding (tested: 0.1 nM)	no binding (tested: 0.1 nM)	no binding (tested: 0.1 nM)	no binding (tested: 0.1 nM)	no binding (tested: 0.1 nM)	no binding (tested: 0.1 nM)	no binding (tested: 0.1 nM)	Cbx1.VD chromodomain-luciferase fusion (designed binder, not shown: engineered YY5 firefly luciferase from Photinus pyralis fused to the C-terminus) MSYYHHHHHHGSDYKDDDDKSSGENLYFQGSGGSEEDEYVVEKVLDRRVVKGKVEYLLKWEGFSDEDNTWEPEENLDCPDLIAEFLQSQKTAHETDK
